Experimental data published in PubChem BioAssay AID272 (DTP/NCI, 2004).
The list does not hold the whole screen: it gathers tests that were run many times, whatever their T/C, doses with no T/C, and many T/C values between a quarter and a half above the control. Further doses and runs are listed elsewhere. T/C gives the treated animals as a percentage of the vehicle group. Some entries give survivors of the animals treated and no T/C: the source holds a T/C of zero for them, seemingly a mark for toxic or unscored doses. Some survivor counts are full or nearly so, which does not show that the dose was tolerated: survival well below the control is almost never listed, so the zero probably covers shortened survival too. Survivors were counted at the toxicity check, usually on the fifth day, unless a day is given; later deaths do not show. Schedule codes are those of the source, read here as Q, the interval in days (D) or hours (H), X, the number of doses. Some doses were run more than once; the values are given in rising order. For survival time, this PubChem deposit counts one and a half times the control or more as active, and values a quarter to a half above the control carry no call in these data; other NCI protocols may use other cut-offs. Some T/C values are followed by the survivors on the day toxicity was checked, most often the fifth; without a count, all were alive then.

Test system: Lewis lung carcinoma i.m., BDF1 mice, T/C %
Assay: NCI In Vivo Anticancer Drug Screen. Data for tumor model Lewis Lung Carcinoma (intramuscular) in B6D2F1 (BDF1) mice
Experimental: The antitumor activity of compounds was measured in mice bearing transplantable tumors. Survival or tumor size were measured and the results are expressed as the measurement made in the treated group (T) divided by the measurement made in the vehicle treated control group (C). The tumor model used in this assay is Lewis Lung Carcinoma (intramuscular) in B6D2F1 (BDF1) mice

[1] = T/C endpoint: median survival time, dose: 32.0 mg/kg/injection, schedule: Q01DX011 (ip), vehicle: saline, higher T/C = longer survival
[2] = T/C endpoint: median survival time, dose: 50.0 mg/kg/injection, schedule: Q01DX011 (ip), vehicle: saline, higher T/C = longer survival

## CO[C@H]1/C=C/O[C@@]2(C)Oc3c(C)c(O)c4c(O)c(c(/C=N/N5C(C)CN(Cc6ccccc6)CC5C)c(O)c4c3C2=O)NC(=O)/C(C)=C\C=C\[C@H](C)[C@H](O)[C@@H](C)[C@@H](O)[C@@H](C)[C@H](OC(C)=O)[C@@H]1C (some centres undefined)
T/C endpoint: median survival time, dose: 100.0 mg/kg/injection, schedule: Q02DX009 (ip), vehicle: Klucel (hydroxypropylcellulose) (HPC), higher T/C = longer survival
  survivor count: 8 of 8
T/C endpoint: median survival time, dose: 100.0 mg/kg/injection, schedule: Q02DX009 (ip), vehicle: other, higher T/C = longer survival
  survivor count: 8 of 8
T/C endpoint: median survival time, dose: 400.0 mg/kg/injection, schedule: Q02DX009 (ip), vehicle: other, higher T/C = longer survival
  survivor count: 8 of 8
T/C endpoint: median survival time, dose: 800.0 mg/kg/injection, schedule: Q02DX009 (ip), vehicle: Klucel (hydroxypropylcellulose) (HPC), higher T/C = longer survival
  survivor count: 8 of 8
T/C endpoint: median survival time, dose: 1600.0 mg/kg/injection, schedule: Q02DX009 (ip), vehicle: Klucel (hydroxypropylcellulose) (HPC), higher T/C = longer survival
  survivor count: 8 of 8

## O=NN(CCCl)C(=O)NCc1ccc(-c2ccc(CNC(=O)N(CCCl)N=O)cc2)cc1
T/C endpoint: median survival time, dose: 65.0 mg/kg/injection, schedule: Q07DX003 (ip), vehicle: Klucel (hydroxypropylcellulose) (HPC), higher T/C = longer survival
  survivor count: 8 of 8
T/C endpoint: median survival time, dose: 300.0 mg/kg/injection, schedule: Q07DX003 (ip), vehicle: Klucel (hydroxypropylcellulose) (HPC), higher T/C = longer survival
  survivor count: 8 of 8
T/C endpoint: median survival time, dose: 500.0 mg/kg/injection, schedule: Q07DX003 (ip), vehicle: Klucel (hydroxypropylcellulose) (HPC), higher T/C = longer survival
  survivor count: 5 of 8

## Clc1ccc(C(c2ccccc2Cl)C(Cl)Cl)cc1 (centres undefined)
T/C endpoint: median survival time, dose: 200.0 mg/kg/injection, schedule: Q01DX011 (ip), vehicle: Klucel (hydroxypropylcellulose) (HPC), higher T/C = longer survival
  survivor count: 6 of 8
T/C endpoint: median survival time, dose: 400.0 mg/kg/injection, schedule: Q01DX011 (ip), vehicle: Klucel (hydroxypropylcellulose) (HPC), higher T/C = longer survival
  survivor count: 5 of 8
T/C endpoint: median survival time, dose: 800.0 mg/kg/injection, schedule: Q01DX011 (ip), vehicle: Klucel (hydroxypropylcellulose) (HPC), higher T/C = longer survival
  survivor count: 8 of 8

## OCC1OC(n2cnc3c(=S)nc[nH]c32)C(O)C1O (centres undefined)
T/C endpoint: mean tumor weight (est.), dose: 6.25 mg/kg/injection, schedule: Q01DX011 (ip), vehicle: other, higher T/C = larger tumour
  survivor count: 5 of 8
T/C endpoint: mean tumor weight (est.), dose: 12.5 mg/kg/injection, schedule: Q01DX011 (ip), vehicle: other, higher T/C = larger tumour
  survivor count: 5 of 8
T/C endpoint: mean tumor weight, dose: 25.0 mg/kg/injection, schedule: Q01DX011 (ip), vehicle: other, higher T/C = larger tumour
  survivor count: 4 of 8
T/C endpoint: mean tumor weight, dose: 50.0 mg/kg/injection, schedule: Q01DX011 (ip), vehicle: other, higher T/C = larger tumour
  survivor count: 1 of 8
T/C endpoint: median survival time, dose: 3.13 mg/kg/injection, schedule: Q01DX011 (ip), vehicle: other, higher T/C = longer survival
  T/C: 127 % of control [7 of 8 alive]
T/C endpoint: median survival time, dose: 6.25 mg/kg/injection, schedule: Q01DX011 (ip), vehicle: other, higher T/C = longer survival
  survivor count: 5 of 8
T/C endpoint: median survival time, dose: 12.5 mg/kg/injection, schedule: Q01DX011 (ip), vehicle: other, higher T/C = longer survival
  survivor count: 5 of 8
T/C endpoint: median survival time, dose: 25.0 mg/kg/injection, schedule: Q01DX011 (ip), vehicle: other, higher T/C = longer survival
  survivor count: 4 of 8 and 6 of 8
T/C endpoint: median survival time, dose: 50.0 mg/kg/injection, schedule: Q01DX011 (ip), vehicle: other, higher T/C = longer survival
  survivor count: 1 of 8
T/C endpoint: median survival time, dose: 100.0 mg/kg/injection, schedule: Q01DX011 (ip), vehicle: other, higher T/C = longer survival
  survivor count: 0 of 8
T/C endpoint: median survival time, dose: 200.0 mg/kg/injection, schedule: Q01DX011 (ip), vehicle: other, higher T/C = longer survival
  survivor count: 0 of 8
T/C endpoint: median survival time, dose: 400.0 mg/kg/injection, schedule: Q01DX011 (ip), vehicle: other, higher T/C = longer survival
  survivor count: 0 of 8

## CCCCCCCCCCCC[S+](C)C
T/C endpoint: median survival time, dose: 8.0 mg/kg/injection, schedule: Q01DX011 (ip), vehicle: saline, higher T/C = longer survival
  survivor count: 4 of 8
T/C endpoint: median survival time, dose: 16.0 mg/kg/injection, schedule: Q01DX011 (ip), vehicle: saline, higher T/C = longer survival
  survivor count: 0 of 8
[1]
  survivor count: 0 of 8

## Cc1ccc2c(ccc(C)[n+]2C)c1
T/C endpoint: mean tumor weight (est.), dose: 150.0 mg/kg/injection, schedule: Q01DX011 (ip), vehicle: saline, higher T/C = larger tumour
  survivor count: 1 of 8

## ClC1=NC(Cl)C(Cl)=N/C1=N\c1ncn[nH]1 (centres undefined)
[1]
  survivor count: 5 of 8
T/C endpoint: median survival time, dose: 64.0 mg/kg/injection, schedule: Q01DX011 (ip), vehicle: saline, higher T/C = longer survival
  survivor count: 0 of 8
T/C endpoint: median survival time, dose: 128.0 mg/kg/injection, schedule: Q01DX011 (ip), vehicle: saline, higher T/C = longer survival
  survivor count: 0 of 8

## CC/C(=C(/CC)c1ccc(O)cc1)c1ccc(O)cc1
T/C endpoint: mean tumor weight, dose: 200.0 mg/kg/injection, schedule: Q01DX011 (ip), vehicle: steroid suspending solution, higher T/C = larger tumour
  survivor count: 5 of 8
T/C endpoint: median survival time, dose: 50.0 mg/kg/injection, schedule: Q01DX011 (ip), vehicle: water, higher T/C = longer survival
  survivor count: 10 of 10
T/C endpoint: median survival time, dose: 100.0 mg/kg/injection, schedule: Q01DX011 (ip), vehicle: steroid suspending solution, higher T/C = longer survival
  survivor count: 6 of 8
T/C endpoint: median survival time, dose: 200.0 mg/kg/injection, schedule: Q01DX011 (ip), vehicle: steroid suspending solution, higher T/C = longer survival
  survivor count: 0 of 8 and 5 of 8
T/C endpoint: median survival time, dose: 200.0 mg/kg/injection, schedule: Q01DX011 (ip), vehicle: water, higher T/C = longer survival
  survivor count: 3 of 10 and 6 of 10
T/C endpoint: median survival time, dose: 400.0 mg/kg/injection, schedule: Q01DX011 (ip), vehicle: steroid suspending solution, higher T/C = longer survival
  survivor count: 0 of 8
T/C endpoint: median survival time, dose: 400.0 mg/kg/injection, schedule: Q01DX011 (ip), vehicle: water, higher T/C = longer survival
  survivor count: 0 of 10
T/C endpoint: median survival time, dose: 800.0 mg/kg/injection, schedule: Q01DX011 (ip), vehicle: steroid suspending solution, higher T/C = longer survival
  survivor count: 0 of 8

## NC(=O)c1cc(N2CC2)c([N+](=O)[O-])cc1[N+](=O)[O-]
T/C endpoint: mean tumor weight, dose: 5.0 mg/kg/injection, schedule: Q01DX011 (ip), vehicle: saline with Tween-80, higher T/C = larger tumour
  survivor count: 5 of 8
T/C endpoint: median survival time, dose: 5.0 mg/kg/injection, schedule: Q01DX011 (ip), vehicle: saline with Tween-80, higher T/C = longer survival
  survivor count: 5 of 8
T/C endpoint: median survival time, dose: 80.0 mg/kg/injection, schedule: Q01DX011 (ip), vehicle: saline with Tween-80, higher T/C = longer survival
  survivor count: 1 of 8

## Nc1n[nH]c(N)n1
T/C endpoint: mean tumor weight, dose: 500.0 mg/kg/injection, schedule: Q03HX024 (ip), vehicle: water, higher T/C = larger tumour
  survivor count: 3 of 8
T/C endpoint: mean tumor weight, dose: 1500.0 mg/kg/injection, schedule: Q01DX009 (ip), vehicle: water, higher T/C = larger tumour
  survivor count: 5 of 8
T/C endpoint: mean tumor weight, dose: 1500.0 mg/kg/injection, schedule: Q01DX011 (ip), vehicle: water, higher T/C = larger tumour
  survivor count: 5 of 8
T/C endpoint: median survival time, dose: 1500.0 mg/kg/injection, schedule: Q01DX009 (ip), vehicle: water, higher T/C = longer survival
  T/C: 126 % of control

## CCC[N+](CCC)=c1ccc2nc3c(C)cc(N(CC)CC)cc3sc-2c1
T/C endpoint: mean tumor weight (est.), dose: 5.0 mg/kg/injection, schedule: Q01DX011 (ip), vehicle: saline, higher T/C = larger tumour
  survivor count: 4 of 8
T/C endpoint: median survival time, dose: 5.0 mg/kg/injection, schedule: Q01DX011 (ip), vehicle: saline, higher T/C = longer survival
  survivor count: 4 of 8
T/C endpoint: median survival time, dose: 10.0 mg/kg/injection, schedule: Q01DX011 (ip), vehicle: saline, higher T/C = longer survival
  survivor count: 0 of 8
T/C endpoint: median survival time, dose: 20.0 mg/kg/injection, schedule: Q01DX011 (ip), vehicle: saline, higher T/C = longer survival
  survivor count: 0 of 8
T/C endpoint: median survival time, dose: 40.0 mg/kg/injection, schedule: Q01DX011 (ip), vehicle: saline, higher T/C = longer survival
  survivor count: 0 of 8
T/C endpoint: median survival time, dose: 80.0 mg/kg/injection, schedule: Q01DX011 (ip), vehicle: saline, higher T/C = longer survival
  survivor count: 0 of 8

## COc1ccc([I+]c2ccc(OC)cc2)cc1
T/C endpoint: median survival time, dose: 6.25 mg/kg/injection, schedule: Q01DX011 (ip), vehicle: saline, higher T/C = longer survival
  survivor count: 0 of 8 and 1 of 8
T/C endpoint: median survival time, dose: 12.5 mg/kg/injection, schedule: Q01DX011 (ip), vehicle: saline, higher T/C = longer survival
  survivor count: 0 of 8
T/C endpoint: median survival time, dose: 25.0 mg/kg/injection, schedule: Q01DX011 (ip), vehicle: saline, higher T/C = longer survival
  survivor count: 0 of 8
[2]
  survivor count: 0 of 8

## Cc1c(N)nc(C(CC(N)=O)NCC(N)C(N)=O)nc1C(=O)NC(C(=O)NC(C)C(O)C(C)C(=O)NC(C(=O)NCCc1nc(-c2nc(C(=O)NCCCCN=C(N)N)cs2)cs1)C(C)O)C(OC1OC(CO)C(O)C(O)C1OC1OC(CO)C(O)C(OC(N)=O)C1O)c1cnc[nH]1 (centres undefined)
T/C endpoint: median survival time, dose: 2.3 mg/kg/injection, schedule: Q01DX011 (ip), vehicle: saline, higher T/C = longer survival
  T/C: 133 % of control
[2]
  survivor count: 5 of 8

## COc1cccc2c1C(=O)c1c(O)c3c(c(O)c1C2=O)C[C@@](O)(C(=O)COC(=O)Cc1cccc2ccccc12)C[C@@H]3OC1CC(N)C(O)C(C)O1 (some centres undefined)
T/C endpoint: median survival time, dose: 2.0 mg/kg/injection, schedule: Q01DX011 (ip), vehicle: other, higher T/C = longer survival
  T/C: 139 % of control [4 of 6 alive]
T/C endpoint: median survival time, dose: 4.0 mg/kg/injection, schedule: Q01DX011 (ip), vehicle: other, higher T/C = longer survival
  survivor count: 0 of 6
